Laboratory results from the supplement of paper PMC10849652.
This is one part of the list.

Amino acid sequences for entries named in this document (tags omitted). A change or cut given only in a name is not applied to a line headed by its entry.
UniProt Q6NXT6: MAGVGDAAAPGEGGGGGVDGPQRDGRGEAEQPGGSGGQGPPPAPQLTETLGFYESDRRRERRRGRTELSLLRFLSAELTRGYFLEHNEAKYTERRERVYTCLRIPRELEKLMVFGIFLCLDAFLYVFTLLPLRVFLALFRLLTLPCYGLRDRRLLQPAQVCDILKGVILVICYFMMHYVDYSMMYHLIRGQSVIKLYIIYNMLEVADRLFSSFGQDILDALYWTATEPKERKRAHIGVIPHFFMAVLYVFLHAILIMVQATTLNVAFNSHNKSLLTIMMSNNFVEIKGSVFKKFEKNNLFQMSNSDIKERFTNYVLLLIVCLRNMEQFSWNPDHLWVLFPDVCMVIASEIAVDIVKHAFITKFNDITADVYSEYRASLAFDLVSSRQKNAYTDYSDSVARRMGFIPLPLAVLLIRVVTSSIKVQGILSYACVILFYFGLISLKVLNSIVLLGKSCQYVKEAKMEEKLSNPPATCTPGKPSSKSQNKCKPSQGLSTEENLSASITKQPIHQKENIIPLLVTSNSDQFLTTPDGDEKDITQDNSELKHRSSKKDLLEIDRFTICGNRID
UniProt Q8WVM0: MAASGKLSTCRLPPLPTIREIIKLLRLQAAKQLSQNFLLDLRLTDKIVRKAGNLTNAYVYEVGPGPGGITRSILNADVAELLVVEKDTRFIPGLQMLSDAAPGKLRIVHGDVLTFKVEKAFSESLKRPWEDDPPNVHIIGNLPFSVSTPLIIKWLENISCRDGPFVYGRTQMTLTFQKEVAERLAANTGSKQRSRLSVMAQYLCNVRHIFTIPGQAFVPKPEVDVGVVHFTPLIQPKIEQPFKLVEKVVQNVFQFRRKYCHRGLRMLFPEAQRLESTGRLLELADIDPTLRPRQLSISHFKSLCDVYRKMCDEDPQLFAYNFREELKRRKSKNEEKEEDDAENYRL
UniProt Q9NUW8, whole entry, looked up: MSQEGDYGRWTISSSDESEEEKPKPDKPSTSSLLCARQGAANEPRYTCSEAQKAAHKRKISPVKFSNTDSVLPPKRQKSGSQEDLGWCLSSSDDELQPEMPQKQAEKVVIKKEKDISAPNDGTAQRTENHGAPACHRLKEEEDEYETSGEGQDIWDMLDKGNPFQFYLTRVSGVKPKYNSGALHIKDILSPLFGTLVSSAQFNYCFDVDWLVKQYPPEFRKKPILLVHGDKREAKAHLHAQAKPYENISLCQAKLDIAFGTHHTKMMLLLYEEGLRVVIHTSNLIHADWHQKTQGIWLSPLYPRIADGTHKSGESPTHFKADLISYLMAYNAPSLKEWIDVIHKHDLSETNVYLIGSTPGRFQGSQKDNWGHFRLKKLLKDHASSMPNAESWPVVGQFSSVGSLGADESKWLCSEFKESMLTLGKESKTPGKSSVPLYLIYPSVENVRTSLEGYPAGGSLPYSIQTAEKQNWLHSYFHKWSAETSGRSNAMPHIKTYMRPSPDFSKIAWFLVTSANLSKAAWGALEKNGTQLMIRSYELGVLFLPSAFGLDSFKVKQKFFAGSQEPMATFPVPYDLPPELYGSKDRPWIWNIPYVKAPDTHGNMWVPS
UniProt Q99426: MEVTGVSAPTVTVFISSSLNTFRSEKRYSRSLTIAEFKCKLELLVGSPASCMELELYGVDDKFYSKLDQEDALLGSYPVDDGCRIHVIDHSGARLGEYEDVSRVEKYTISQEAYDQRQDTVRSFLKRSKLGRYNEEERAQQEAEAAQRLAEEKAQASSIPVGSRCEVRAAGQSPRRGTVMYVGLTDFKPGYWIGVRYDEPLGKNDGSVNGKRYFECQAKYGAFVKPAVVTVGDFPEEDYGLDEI
UniProt P37837: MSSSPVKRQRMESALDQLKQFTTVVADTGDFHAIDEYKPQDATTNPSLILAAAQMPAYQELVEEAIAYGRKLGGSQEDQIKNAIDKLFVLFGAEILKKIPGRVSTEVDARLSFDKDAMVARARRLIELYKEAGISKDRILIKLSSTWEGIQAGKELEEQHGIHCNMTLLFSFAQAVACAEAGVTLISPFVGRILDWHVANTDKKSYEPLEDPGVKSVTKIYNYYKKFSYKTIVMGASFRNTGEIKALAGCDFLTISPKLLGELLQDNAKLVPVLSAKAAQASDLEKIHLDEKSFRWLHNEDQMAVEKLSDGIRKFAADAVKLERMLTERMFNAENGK
UniProt Q13428: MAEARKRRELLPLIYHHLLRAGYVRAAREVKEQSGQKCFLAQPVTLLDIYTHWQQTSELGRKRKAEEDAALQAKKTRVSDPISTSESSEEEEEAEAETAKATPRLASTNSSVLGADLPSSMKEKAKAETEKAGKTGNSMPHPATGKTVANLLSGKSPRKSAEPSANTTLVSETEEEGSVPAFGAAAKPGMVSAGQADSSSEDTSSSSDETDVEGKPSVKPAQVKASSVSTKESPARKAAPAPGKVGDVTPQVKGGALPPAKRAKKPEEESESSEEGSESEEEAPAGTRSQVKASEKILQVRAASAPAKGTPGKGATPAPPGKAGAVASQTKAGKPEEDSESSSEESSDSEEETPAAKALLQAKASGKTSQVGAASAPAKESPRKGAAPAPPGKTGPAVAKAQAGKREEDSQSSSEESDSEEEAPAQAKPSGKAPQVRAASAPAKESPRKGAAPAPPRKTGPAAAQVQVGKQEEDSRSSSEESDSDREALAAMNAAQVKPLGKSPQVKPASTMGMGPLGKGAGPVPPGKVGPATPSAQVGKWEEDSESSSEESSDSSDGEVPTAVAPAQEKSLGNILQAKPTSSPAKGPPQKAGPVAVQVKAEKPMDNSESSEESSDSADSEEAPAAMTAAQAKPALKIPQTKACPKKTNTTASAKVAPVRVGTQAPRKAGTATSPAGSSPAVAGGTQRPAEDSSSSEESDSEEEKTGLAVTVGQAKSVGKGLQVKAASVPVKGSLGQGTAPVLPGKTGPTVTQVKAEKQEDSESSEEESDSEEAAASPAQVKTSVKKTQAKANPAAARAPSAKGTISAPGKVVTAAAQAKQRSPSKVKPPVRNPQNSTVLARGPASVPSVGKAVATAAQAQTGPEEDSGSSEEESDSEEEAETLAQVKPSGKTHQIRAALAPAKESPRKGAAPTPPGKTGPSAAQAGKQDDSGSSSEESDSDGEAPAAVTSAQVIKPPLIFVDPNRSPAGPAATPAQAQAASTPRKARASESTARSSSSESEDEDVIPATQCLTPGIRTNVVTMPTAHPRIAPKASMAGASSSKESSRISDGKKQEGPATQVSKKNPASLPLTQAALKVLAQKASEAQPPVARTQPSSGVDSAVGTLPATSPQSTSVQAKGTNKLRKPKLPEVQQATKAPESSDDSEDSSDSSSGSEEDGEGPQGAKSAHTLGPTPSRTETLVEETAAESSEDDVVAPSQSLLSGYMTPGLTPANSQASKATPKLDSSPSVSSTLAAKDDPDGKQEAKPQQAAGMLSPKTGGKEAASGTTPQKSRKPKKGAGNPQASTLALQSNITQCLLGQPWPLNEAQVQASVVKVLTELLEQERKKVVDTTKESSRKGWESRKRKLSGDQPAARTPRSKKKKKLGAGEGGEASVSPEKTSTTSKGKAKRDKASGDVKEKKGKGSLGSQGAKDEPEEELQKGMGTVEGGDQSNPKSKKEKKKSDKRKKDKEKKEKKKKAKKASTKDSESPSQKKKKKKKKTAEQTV
UniProt Q93075: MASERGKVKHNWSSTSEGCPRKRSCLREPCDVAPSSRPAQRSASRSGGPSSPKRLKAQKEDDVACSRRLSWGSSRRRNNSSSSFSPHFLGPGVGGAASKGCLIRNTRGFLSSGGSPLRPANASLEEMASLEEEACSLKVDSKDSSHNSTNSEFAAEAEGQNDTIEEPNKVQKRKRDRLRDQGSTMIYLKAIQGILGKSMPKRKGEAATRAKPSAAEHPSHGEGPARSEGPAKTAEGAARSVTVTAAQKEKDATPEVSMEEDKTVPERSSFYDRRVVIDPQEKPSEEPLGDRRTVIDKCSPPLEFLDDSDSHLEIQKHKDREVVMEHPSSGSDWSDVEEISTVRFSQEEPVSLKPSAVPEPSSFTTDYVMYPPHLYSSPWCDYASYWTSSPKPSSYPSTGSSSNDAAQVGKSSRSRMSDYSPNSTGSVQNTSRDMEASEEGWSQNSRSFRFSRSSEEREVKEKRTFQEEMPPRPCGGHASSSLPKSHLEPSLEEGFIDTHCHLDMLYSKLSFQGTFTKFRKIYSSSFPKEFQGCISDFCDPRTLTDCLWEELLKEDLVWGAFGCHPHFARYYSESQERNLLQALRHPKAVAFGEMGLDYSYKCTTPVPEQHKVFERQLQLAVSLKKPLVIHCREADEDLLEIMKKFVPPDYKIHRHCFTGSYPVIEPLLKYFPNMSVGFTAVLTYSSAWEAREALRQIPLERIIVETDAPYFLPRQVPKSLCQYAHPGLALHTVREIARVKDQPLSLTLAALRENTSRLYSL
UniProt Q16594, whole entry, looked up: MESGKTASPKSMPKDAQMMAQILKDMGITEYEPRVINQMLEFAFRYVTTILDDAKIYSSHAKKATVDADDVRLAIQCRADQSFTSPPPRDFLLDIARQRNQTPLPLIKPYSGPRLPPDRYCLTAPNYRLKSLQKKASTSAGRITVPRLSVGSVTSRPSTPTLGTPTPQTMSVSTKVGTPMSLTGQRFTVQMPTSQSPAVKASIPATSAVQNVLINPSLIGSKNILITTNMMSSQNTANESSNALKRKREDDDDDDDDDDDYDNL
UniProt P02787, whole entry, looked up: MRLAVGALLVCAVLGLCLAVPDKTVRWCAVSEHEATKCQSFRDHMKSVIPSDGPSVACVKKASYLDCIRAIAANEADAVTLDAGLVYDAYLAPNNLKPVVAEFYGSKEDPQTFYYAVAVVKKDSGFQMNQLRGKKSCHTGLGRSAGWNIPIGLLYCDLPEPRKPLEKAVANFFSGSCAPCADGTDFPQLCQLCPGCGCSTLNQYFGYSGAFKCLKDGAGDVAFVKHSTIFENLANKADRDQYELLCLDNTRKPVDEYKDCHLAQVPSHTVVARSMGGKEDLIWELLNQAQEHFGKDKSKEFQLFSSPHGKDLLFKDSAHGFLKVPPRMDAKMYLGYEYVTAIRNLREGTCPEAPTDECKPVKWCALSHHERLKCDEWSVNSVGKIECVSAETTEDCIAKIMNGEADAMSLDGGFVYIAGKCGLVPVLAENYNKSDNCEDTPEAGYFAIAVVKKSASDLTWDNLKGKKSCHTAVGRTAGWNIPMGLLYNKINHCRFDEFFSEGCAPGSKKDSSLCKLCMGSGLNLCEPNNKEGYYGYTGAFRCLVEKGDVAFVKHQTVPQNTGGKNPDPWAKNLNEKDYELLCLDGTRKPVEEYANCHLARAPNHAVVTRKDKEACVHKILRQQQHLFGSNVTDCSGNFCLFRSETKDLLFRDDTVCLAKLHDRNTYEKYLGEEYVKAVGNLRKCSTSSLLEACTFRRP
UniProt Q14186: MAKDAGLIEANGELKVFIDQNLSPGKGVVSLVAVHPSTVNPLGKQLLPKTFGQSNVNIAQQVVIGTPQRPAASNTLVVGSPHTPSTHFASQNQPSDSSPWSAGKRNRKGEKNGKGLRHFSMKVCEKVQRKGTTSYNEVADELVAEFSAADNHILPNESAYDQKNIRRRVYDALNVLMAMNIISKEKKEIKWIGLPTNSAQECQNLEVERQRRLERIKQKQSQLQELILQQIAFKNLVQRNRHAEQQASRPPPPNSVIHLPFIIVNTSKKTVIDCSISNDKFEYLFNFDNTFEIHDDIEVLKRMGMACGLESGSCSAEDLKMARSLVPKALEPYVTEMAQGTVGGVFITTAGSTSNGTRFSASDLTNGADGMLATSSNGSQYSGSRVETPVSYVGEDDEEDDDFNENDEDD
UniProt Q9H7E2: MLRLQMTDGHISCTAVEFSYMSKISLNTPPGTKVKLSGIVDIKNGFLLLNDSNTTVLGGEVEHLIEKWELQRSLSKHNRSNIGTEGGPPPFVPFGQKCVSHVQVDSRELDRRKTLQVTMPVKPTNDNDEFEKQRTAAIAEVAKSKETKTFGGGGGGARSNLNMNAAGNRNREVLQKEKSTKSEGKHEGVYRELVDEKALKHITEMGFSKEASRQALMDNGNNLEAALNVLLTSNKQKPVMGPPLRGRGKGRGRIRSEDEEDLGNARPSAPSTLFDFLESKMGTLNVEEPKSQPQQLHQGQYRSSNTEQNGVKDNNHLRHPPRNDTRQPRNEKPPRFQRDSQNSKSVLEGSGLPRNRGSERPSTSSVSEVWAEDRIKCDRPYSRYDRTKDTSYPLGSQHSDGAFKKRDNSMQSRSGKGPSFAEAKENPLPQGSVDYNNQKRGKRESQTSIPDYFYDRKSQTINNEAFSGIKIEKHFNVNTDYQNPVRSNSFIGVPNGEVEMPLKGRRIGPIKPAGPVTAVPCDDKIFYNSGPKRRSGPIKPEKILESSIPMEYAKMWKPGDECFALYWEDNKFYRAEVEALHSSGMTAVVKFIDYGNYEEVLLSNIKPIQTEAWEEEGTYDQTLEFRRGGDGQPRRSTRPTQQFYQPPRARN

Assays:
Experiment in all cases: log2 fold change, soluble protein after heating vs DMSO (PISA); higher = thermal stabilisation; K562 lysate, 10 uM; active = over 0.2 and 3.5 SD of the protein, either way, in both replicates (recomputed)
nilotinib = compound: Cc1cn(-c2cc(NC(=O)c3ccc(C)c(Nc4nccc(-c5cccnc5)n4)c3)cc(C(F)(F)F)c2)cn1 [nilotinib]
In short: (§1)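 Log-two fold change in thermal stability relative to solvent controls is reported from duplicates. For each sample, crude K562 extract from dounce-homogenised pellets in PBS pH 7.4 with 1 mM MgCl2, at 1 mg/mL protein, was treated with 10 μM compound for 30 min. Aliquots heated for 3 min across 48°C-58°C were pooled, brought to 0.5% NP-40 at 4°C and cleared at 21,000xg for 90 min. The supernatant was quantified by TMTpro 16plex LC-MS/MS with channel sums equalised.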

[1] = compound: Cc1nc(Nc2n[nH]c3c2CN(C(=O)N[C@H](CN(C)C)c2ccccc2)C3(C)C)c2sccc2n1
In short: as §1

dasatinib = compound: Cc1nc(Nc2ncc(C(=O)Nc3c(C)cccc3Cl)s2)cc(N2CCN(CCO)CC2)n1 [dasatinib]
In short: as §1

[2] = compound: Cc1ncc(-c2ccnc(Nc3ccc(S(C)(=O)=O)cc3)n2)n1C(C)C
In short: as §1

[3] = compound: Cn1cc(-c2ccc3c(c2)CCN3C(=O)Cc2cccc(C(F)(F)F)c2)c2c(N)ncnc21
In short: as §1

quisinostat = compound: Cn1cc(CNCC2CCN(c3ncc(C(=O)NO)cn3)CC2)c2ccccc21 [quisinostat]
In short: as §1

tipifarnib = compound: Cn1cncc1[C@@](N)(c1ccc(Cl)cc1)c1ccc2c(c1)c(-c1cccc(Cl)c1)cc(=O)n2C [tipifarnib]
In short: as §1

[4] = compound: NC(=O)Nc1cc(-c2cccc(F)c2)sc1C(=O)N[C@H]1CCCNC1
In short: as §1

[5] = compound: NC(=O)c1cnc(N[C@@H]2CCCC[C@@H]2N)nc1Nc1cccc(-n2nccn2)c1
In short: as §1

[6] = compound: NC1(c2ccc(-c3nc4ccn5c(=O)[nH]nc5c4cc3-c3ccccc3)cc2)CCC1
In short: as §1

[7] = compound: NCC(=O)Nc1ccc(-n2nc(C(F)(F)F)cc2-c2ccc3c(ccc4ccccc43)c2)cc1
In short: as §1

vorinostat = compound: O=C(CCCCCCC(=O)Nc1ccccc1)NO [vorinostat]
In short: as §1

silmitasertib = compound: O=C(O)c1ccc2c(c1)nc(Nc1cccc(Cl)c1)c1ccncc12 [silmitasertib]
In short: as §1

[8] = compound: O=C1NC(=O)C(c2cnc3ccccn23)=C1c1cn2c3c(cc(F)cc13)CN(C(=O)N1CCCCC1)CC2
In short: as §1

entospletinib = compound: c1cn2cc(-c3ccc4cn[nH]c4c3)nc(Nc3ccc(N4CCOCC4)cc3)c2n1 [entospletinib]
In short: as §1

Measured: log2 fold change

TAPT1 (UniProt Q6NXT6)
inactive: nilotinib 0.009 | [1] 0.012 | dasatinib 0.013 | [2] 0.03 | [3] -0.118 | quisinostat -0.053 | tipifarnib 0.017 | [4] -0.032 | [5] 0.011 | [6] -0.001 | [7] 0.023 | vorinostat 0.09 | silmitasertib 0.007 | [8] 0.023 | entospletinib 0.001

TBC1D9B isoform 2 (UniProt Q66K14)
inactive: nilotinib 0.107 | [1] -0.064 | dasatinib 0.028 | [2] 0 | [3] -0.002 | quisinostat -0.097 | tipifarnib -0.048 | [4] 0.018 | [5] 0.053 | [6] -0.166 | [7] 0.005 | vorinostat -0.048 | silmitasertib -0.064 | [8] 0.031 | entospletinib 0.014

TFB1M (UniProt Q8WVM0)
inactive: nilotinib -0.011 | [1] -0.032 | dasatinib -0.024 | [2] 0.02 | [3] 0.004 | quisinostat 0.007 | tipifarnib -0.007 | [4] -0.006 | [5] 0.042 | [6] 0.078 | [7] -0.011 | vorinostat -0.13 | silmitasertib 0.154 | [8] 0.027 | entospletinib 0.049

TDP1 (UniProt Q9NUW8)
inactive: nilotinib -0.061 | [1] 0.073 | dasatinib 0.076 | [2] -0.021 | [3] 0.107 | quisinostat 0.056 | tipifarnib 0.003 | [4] 0.01 | [5] 0.029 | [6] 0.04 | [7] -0.004 | vorinostat -0.022 | silmitasertib 0.035 | [8] -0.03 | entospletinib 0.047

TBCB (UniProt Q99426)
inactive: nilotinib 0.099 | [1] -0.045 | dasatinib 0.014 | [2] 0.04 | [3] 0.018 | quisinostat -0.045 | tipifarnib 0.005 | [4] 0.005 | [5] 0.024 | [6] 0.004 | [7] 0 | vorinostat -0.072 | silmitasertib -0.01 | [8] 0.026 | entospletinib 0.004

TALDO1 (UniProt P37837)
inactive: nilotinib -0.004 | [1] -0.009 | dasatinib -0.008 | [2] -0.027 | [3] 0.022 | quisinostat 0.068 | tipifarnib 0.047 | [4] -0.001 | [5] -0.016 | [6] 0.043 | [7] -0.035 | vorinostat 0.048 | silmitasertib 0.012 | [8] -0.014 | entospletinib 0.001

TCOF1 isoform 6 (UniProt Q13428)
inactive: nilotinib -0.03 | [1] 0.167 | dasatinib 0.134 | [2] 0.066 | [3] -0.025 | quisinostat 0.022 | tipifarnib 0.077 | [4] 0.005 | [5] -0.06 | [6] 0.1 | vorinostat 0.15 | silmitasertib -0.052 | [8] -0.075

TCIRG1 (UniProt Q13488)
inactive: nilotinib 0.066 | [1] -0.033 | dasatinib 0.087 | [2] -0.072 | [3] -0.067 | quisinostat -0.016 | tipifarnib 0.002 | [4] 0.09 | [5] 0.021 | [6] -0.044 | [7] -0.032 | vorinostat -0.042 | silmitasertib -0.026 | [8] 0.001 | entospletinib 0.047

Two successive entries out of the list so far:
TFB1M (UniProt Q8WVM0)
inactive: nilotinib -0.011 | [1] -0.032 | dasatinib -0.024 | [2] 0.02 | [3] 0.004 | quisinostat 0.007 | tipifarnib -0.007 | [4] -0.006 | [5] 0.042 | [6] 0.078 | [7] -0.011 | vorinostat -0.13 | silmitasertib 0.154 | [8] 0.027 | entospletinib 0.049

TDP1 (UniProt Q9NUW8)
inactive: nilotinib -0.061 | [1] 0.073 | dasatinib 0.076 | [2] -0.021 | [3] 0.107 | quisinostat 0.056 | tipifarnib 0.003 | [4] 0.01 | [5] 0.029 | [6] 0.04 | [7] -0.004 | vorinostat -0.022 | silmitasertib 0.035 | [8] -0.03 | entospletinib 0.047

More results

TATDN2 (UniProt Q93075)
inactive: nilotinib -0.015 | [1] 0.027 | dasatinib -0.075 | [2] 0.005 | [3] -0.012 | quisinostat 0.001 | tipifarnib -0.012 | [4] 0.014 | [5] 0.068 | [6] -0.114 | [7] 0.063 | vorinostat -0.061 | silmitasertib -0.157 | [8] 0.006 | entospletinib -0.056

TBC1D23 (UniProt Q9NUY8)
active: vorinostat -0.252
inactive: nilotinib 0.013 | [1] -0.018 | dasatinib -0.001 | [2] -0.005 | [3] -0.021 | quisinostat -0.028 | tipifarnib 0.018 | [4] 0.01 | [5] -0.032 | [6] -0.004 | [7] 0.031 | silmitasertib -0.023 | [8] -0.001 | entospletinib 0

TAF9 (UniProt Q16594)
inactive: nilotinib -0.043 | [1] 0.049 | dasatinib -0.017 | [2] -0.003 | [3] 0.021 | quisinostat -0.055 | tipifarnib -0.029 | [4] 0.013 | [5] 0.084 | [6] -0.024 | [7] 0.002 | vorinostat -0.099 | silmitasertib -0.011 | [8] -0.003 | entospletinib -0.017

TF (UniProt P02787)
inactive: nilotinib -0.146 | [1] -0.069 | dasatinib 0.02 | [2] -0.261 | [3] 0.017 | quisinostat -0.071 | tipifarnib -0.007 | [4] 0.023 | [5] -0.025 | [6] -0.007 | [7] -0.008 | vorinostat 0.173 | silmitasertib -0.07 | [8] 0.029 | entospletinib 0.033

TFDP1 (UniProt Q14186)
inactive: nilotinib 0.071 | [1] 0.004 | dasatinib -0.018 | [2] 0.059 | [3] 0 | quisinostat -0.021 | tipifarnib 0.008 | [4] 0.023 | [5] 0.021 | [6] 0.077 | [7] -0.005 | vorinostat -0.02 | silmitasertib -0.039 | [8] 0.033 | entospletinib -0.027

TDRD3 isoform 3 (UniProt Q9H7E2)
inactive: nilotinib 0.261 | [1] -0.04 | dasatinib 0.033 | [2] 0.17 | [3] 0.01 | quisinostat -0.023 | tipifarnib -0.152 | [4] 0.042 | [5] 0.014 | [6] 0.064 | [7] 0.23 | vorinostat -0.016 | silmitasertib -0.03 | [8] 0.008 | entospletinib -0.041
